In PubChem BioAssay AID256 (DTP/NCI, 2004) one finds survivor count and T/C data, which are given here for 24 compounds.

The list does not hold the whole screen: it gathers tests that were run many times, whatever their T/C, doses with no T/C, and many T/C values between a quarter and a half above the control. Other doses and runs of a compound stand elsewhere. T/C gives the treated animals as a percentage of the vehicle group. Some entries give survivors of the animals treated and no T/C: the source files T/C as zero there, which appears to mark a toxic dose or a test without result, not a measured value. Some doses without a T/C left all or most animals alive at the check, yet need not have been tolerated: the source hardly ever lists a survival T/C far under the control, and the zero likely stands for such cases as well. Survivors were counted at the toxicity check, usually on the fifth day, unless a day is given; later deaths do not show. Schedules are NCI's codes, taken here to give the interval after Q, in days (D) or hours (H), and the number of doses after X. Some entries were tested several times; the values are given in rising order. Where survival is the endpoint, this PubChem deposit counts one and a half times the control or more as active, and values a quarter to a half above the control carry no call in these data; other NCI protocols may use other cut-offs.

The subject of this assay is CD2F1 mice, L1210 leukemia ip, survival T/C. The assay can be described thus: NCI In Vivo Anticancer Drug Screen. Data for tumor model L1210 Leukemia (intraperitoneal) in CD2F1 (CDF1) mice. As to conditions: higher T/C = longer survival. The method, boiled down:
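Ratio T/C, where T is the treated-group value and C the vehicle-dosed control value, from mice implanted with a transplantable tumor.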

Setting [1] is: T/C endpoint: mean survival time, dose: 400.0 mg/kg/injection, schedule: Q04DX002 (ip), vehicle: saline with Tween-80.
Setting [2] is: T/C endpoint: mean survival time, dose: 400.0 mg/kg/injection, schedule: Q04DX003 (ip), vehicle: saline with Tween-80.
Where [3] appears, read: T/C endpoint: median survival time, dose: 200.0 mg/kg/injection, schedule: Q01DX009 (ip), vehicle: Klucel (hydroxypropylcellulose) (HPC).
The mark [4] stands for this setting: T/C endpoint: median survival time, dose: 400.0 mg/kg/injection, schedule: Q01DX009 (ip), vehicle: Klucel (hydroxypropylcellulose) (HPC).
The mark [5] stands for this setting: T/C endpoint: mean survival time, dose: 200.0 mg/kg/injection, schedule: Q01DX005 (ip), vehicle: water.
[6] abbreviates: T/C endpoint: mean survival time, dose: 200.0 mg/kg/injection, schedule: Q01DX009 (ip), vehicle: saline with Tween-80.
Where [7] appears, read: T/C endpoint: median survival time, dose: 6.25 mg/kg/injection, schedule: Q01DX009 (ip), vehicle: water.
[8] abbreviates: T/C endpoint: median survival time, dose: 12.0 mg/kg/injection, schedule: Q01DX009 (ip), vehicle: water.
[9] abbreviates: T/C endpoint: mean survival time, dose: 400.0 mg/kg/injection, schedule: Q01DX005 (ip), vehicle: water.

With `CC(=O)N1CCc2nc3ccccc3cc21`, the survivor count is on record as 0 of 6 (T/C endpoint: mean survival time, dose: 225.0 mg/kg/injection, schedule: Q01DX009 (ip), vehicle: saline with Tween-80) and 0 of 6 (T/C endpoint: mean survival time, dose: 340.0 mg/kg/injection, schedule: Q01DX009 (ip), vehicle: saline with Tween-80).
Turning to `NC(CS)=NC1CCCCC1`, the survivor count was 0 of 3 (T/C endpoint: mean survival time, dose: 50.0 mg/kg/injection, schedule: Q04DX002 (ip), vehicle: saline with Tween-80); 1 of 3 (T/C endpoint: mean survival time, dose: 100.0 mg/kg/injection, schedule: Q04DX002 (ip), vehicle: saline with Tween-80); 0 of 3 (T/C endpoint: mean survival time, dose: 200.0 mg/kg/injection, schedule: Q04DX002 (ip), vehicle: saline with Tween-80); 0 of 3 under setting [1].
Regarding `CN1CCCN(C)C1c1cc([N+](=O)[O-])ccc1O`, the survivor count is, setting by setting: (T/C endpoint: mean survival time, dose: 100.0 mg/kg/injection, schedule: Q04DX003 (ip), vehicle: saline with Tween-80) 2 of 6; (T/C endpoint: mean survival time, dose: 200.0 mg/kg/injection, schedule: Q04DX003 (ip), vehicle: saline with Tween-80) 0 of 6; under setting [2], 1 of 6.
As to `Fc1ccc(NC2(c3nnnn3C3CCCCC3)CCNCC2)cc1`, the survivor count is 0 of 6 (T/C endpoint: mean survival time, dose: 100.0 mg/kg/injection, schedule: Q01DX001 (ip), vehicle: saline with Tween-80); 0 of 6 (T/C endpoint: mean survival time, dose: 200.0 mg/kg/injection, schedule: Q01DX001 (ip), vehicle: saline with Tween-80); 0 of 6 (T/C endpoint: mean survival time, dose: 400.0 mg/kg/injection, schedule: Q01DX001 (ip), vehicle: saline with Tween-80).
Consider `CCOC(=O)c1c(NC(C)=O)sc2c1CCCC2`, for which the survivor count under setting [2] is given as 6 of 6.
Same read-out and setting: in the case of `Clc1cc(Cl)cc(Nc2nc(C(Cl)(Cl)Cl)nc(C(Cl)(Cl)Cl)n2)c1` it was 3 of 6; in that of `C1CN(CCSSCCN2CCOCC2)CCO1`, 3 of 6.
In the case of `Cc1ccc(S(=O)(=O)NC(=O)C2C(=O)CC3(CCCCC3)CC2=O)cc1`, the survivor count under setting [3] is 1 of 6 and the survivor count under setting [4] is 0 of 6.
On to `CCOC(=O)COC(CN)C(Cl)(Cl)Cl` (stereo not given), for which the survivor count under setting [2] is 1 of 6.
Consider `CC1=NCCc2c1cc1c([nH]c3ccccc31)c2C`, for which the T/C (T/C endpoint: mean survival time, dose: 100.0 mg/kg/injection, schedule: Q01DX009 (ip), vehicle: saline with Tween-80) is 129 % of control. For the same compound, the survivor count (T/C endpoint: mean survival time, dose: 150.0 mg/kg/injection, schedule: Q01DX009 (ip), vehicle: saline with Tween-80) is recorded as 3 of 6.
As for `CC1(C)N=C(N)N=C(N)N1c1ccc(CNC(=O)Nc2cccc(S(=O)(=O)F)c2)cc1`, the T/C runs as follows: (T/C endpoint: mean survival time, dose: 12.5 mg/kg/injection, schedule: Q01DX009 (ip), vehicle: saline) 127 % of control; (T/C endpoint: mean survival time, dose: 50.0 mg/kg/injection, schedule: Q01DX009 (ip), vehicle: saline) 135 % of control.
Take `C#CC1(OC(=O)Nc2ccccc2)CCCCC1`: under setting [1], the survivor count was 3 of 3.
For the compound `CN1N=C(N)c2cn(C3OC(CO)C4OC(C)(C)OC43)c3ncnc1c23` (stereo not given), the survivor count under setting [5] is listed as 0 of 3.
Turning to `CCCCCCCCCCCCCCCCS(=O)CC(O)COC(=O)c1ccc(C(=O)OCC(O)CS(=O)CCCCCCCCCCCCCCCC)cc1` (stereo not given), the survivor count (T/C endpoint: mean survival time, dose: 400.0 mg/kg/injection, schedule: Q01DX009 (ip), vehicle: saline + Tween-80 + alcohol) was 3 of 6.
Consider `O=C(OCC1OC(n2cc(C(F)(F)F)c(=O)[nH]c2=O)CC1OC(=O)c1ccc([N+](=O)[O-])cc1)c1ccc([N+](=O)[O-])cc1` (stereo not given), for which the T/C is, setting by setting: (T/C endpoint: median survival time, dose: 100.0 mg/kg/injection, schedule: Q01DX009 (ip), vehicle: Klucel (hydroxypropylcellulose) (HPC)) 125 % of control; under setting [3], 141 % of control; under setting [4], 137 % of control.
On to `CCc1cc(CC)c(CC)c(Br)c1CC`, for which the survivor count under setting [6] is recorded as 3 of 6 and the survivor count under setting [2] is recorded as 2 of 6.
As for `c1coc(-c2nc3ccccc3s2)c1`, the survivor count (T/C endpoint: mean survival time, dose: 400.0 mg/kg/injection, schedule: Q01DX001 (ip), vehicle: Klucel (hydroxypropylcellulose) (HPC)) is 0 of 3 and 0 of 6.
For the compound `O=NNc1ccc(Cl)cn1`, the T/C by setting is: under setting [7], 127 % of control; under setting [8], 142 % of control. For the setting “T/C endpoint: median survival time, dose: 25.0 mg/kg/injection, schedule: Q01DX009 (ip), vehicle: water”, the survivor count was 1 of 6.
Regarding `ClCCc1cnc[nH]1`, the survivor count under setting [5] is recorded as 0 of 6 and the survivor count under setting [9] is recorded as 0 of 6.
As for `CCC(=O)c1ccc(O)c(O)c1`, the survivor count runs as follows: under setting [6], 2 of 6; (T/C endpoint: mean survival time, dose: 400.0 mg/kg/injection, schedule: Q01DX009 (ip), vehicle: saline with Tween-80) 1 of 6.
Consider `Cc1cccc(Br)[n+]1[O-]`, for which, where the note is “T/C endpoint: mean survival time, dose: 400.0 mg/kg/injection, schedule: Q04DX003 (ip), vehicle: saline”, the survivor count is 0 of 6.
`CC(C)NC(=O)NO`: the survivor count is 5 of 8 (T/C endpoint: mean survival time, dose: 93.0 mg/kg/injection, schedule: Q03HX024 (ip), vehicle: saline with Tween-80); 3 of 8 (T/C endpoint: mean survival time, dose: 140.0 mg/kg/injection, schedule: Q03HX024 (ip), vehicle: saline with Tween-80); 0 of 8 (T/C endpoint: mean survival time, dose: 210.0 mg/kg/injection, schedule: Q03HX024 (ip), vehicle: saline with Tween-80).
For `NC(CNC(=O)CBr)C(=O)O` (stereo not given), the T/C is, setting by setting: under setting [7], 125 % of control; under setting [8], 126 and 133 % of control; (T/C endpoint: median survival time, dose: 24.0 mg/kg/injection, schedule: Q01DX009 (ip), vehicle: water) 136 % of control; (T/C endpoint: median survival time, dose: 48.0 mg/kg/injection, schedule: Q01DX009 (ip), vehicle: water) 145 % of control. The survivor count by setting is: (T/C endpoint: median survival time, dose: 50.0 mg/kg/injection, schedule: Q01DX009 (ip), vehicle: water) 3 of 6; (T/C endpoint: median survival time, dose: 96.0 mg/kg/injection, schedule: Q01DX009 (ip), vehicle: water) 1 of 6; (T/C endpoint: median survival time, dose: 100.0 mg/kg/injection, schedule: Q01DX009 (ip), vehicle: water) 0 of 6.
As to `c1ccc(CCNc2ncnc3nc[nH]c23)cc1`, the survivor count under setting [9] is given as 3 of 3.
